Results are given in words; binding and its absence hold for the method and conditions named. In cells and extracts the contact can be indirect. Some entries that bind do so weakly or less than the wild type. For some of these results: Sequences can lack the tags named with a protein.
Columns and labels:
[1] = target: T1, Flag-Cep112 (UniProt Q5PR68); test: co-IP; lysate of NIH/3T3 cells stably expressing Flag-Cep112; IP with Flag antibody and blot for Brca1, and IP with Brca1 antibody and blot with Flag antibody; anti-IgG IP as control
T1 sequence: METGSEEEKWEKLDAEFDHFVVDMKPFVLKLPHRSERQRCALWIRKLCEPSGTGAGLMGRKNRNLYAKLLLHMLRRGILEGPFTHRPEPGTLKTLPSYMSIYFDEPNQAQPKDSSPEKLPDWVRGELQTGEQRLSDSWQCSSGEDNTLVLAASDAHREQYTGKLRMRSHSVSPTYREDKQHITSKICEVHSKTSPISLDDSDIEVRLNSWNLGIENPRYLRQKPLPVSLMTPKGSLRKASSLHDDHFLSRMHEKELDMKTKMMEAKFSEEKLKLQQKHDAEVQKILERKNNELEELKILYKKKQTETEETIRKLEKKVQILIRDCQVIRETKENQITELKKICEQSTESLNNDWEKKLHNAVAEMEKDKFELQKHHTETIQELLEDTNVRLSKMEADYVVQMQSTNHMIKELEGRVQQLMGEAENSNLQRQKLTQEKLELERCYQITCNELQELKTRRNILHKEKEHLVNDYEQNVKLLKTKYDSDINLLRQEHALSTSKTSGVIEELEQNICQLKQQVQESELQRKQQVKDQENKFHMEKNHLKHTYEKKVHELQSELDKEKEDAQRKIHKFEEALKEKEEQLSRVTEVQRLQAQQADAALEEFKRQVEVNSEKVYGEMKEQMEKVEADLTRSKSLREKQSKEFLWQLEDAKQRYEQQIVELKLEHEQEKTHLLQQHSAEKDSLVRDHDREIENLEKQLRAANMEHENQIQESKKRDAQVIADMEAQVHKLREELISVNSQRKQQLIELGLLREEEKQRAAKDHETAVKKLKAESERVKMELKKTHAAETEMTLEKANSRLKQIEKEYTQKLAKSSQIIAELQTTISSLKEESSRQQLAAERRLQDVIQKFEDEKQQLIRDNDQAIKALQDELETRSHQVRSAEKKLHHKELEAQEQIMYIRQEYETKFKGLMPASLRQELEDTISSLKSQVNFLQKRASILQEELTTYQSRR

Amino acid sequences for entries named in this document (tags omitted).
UniProt P48754: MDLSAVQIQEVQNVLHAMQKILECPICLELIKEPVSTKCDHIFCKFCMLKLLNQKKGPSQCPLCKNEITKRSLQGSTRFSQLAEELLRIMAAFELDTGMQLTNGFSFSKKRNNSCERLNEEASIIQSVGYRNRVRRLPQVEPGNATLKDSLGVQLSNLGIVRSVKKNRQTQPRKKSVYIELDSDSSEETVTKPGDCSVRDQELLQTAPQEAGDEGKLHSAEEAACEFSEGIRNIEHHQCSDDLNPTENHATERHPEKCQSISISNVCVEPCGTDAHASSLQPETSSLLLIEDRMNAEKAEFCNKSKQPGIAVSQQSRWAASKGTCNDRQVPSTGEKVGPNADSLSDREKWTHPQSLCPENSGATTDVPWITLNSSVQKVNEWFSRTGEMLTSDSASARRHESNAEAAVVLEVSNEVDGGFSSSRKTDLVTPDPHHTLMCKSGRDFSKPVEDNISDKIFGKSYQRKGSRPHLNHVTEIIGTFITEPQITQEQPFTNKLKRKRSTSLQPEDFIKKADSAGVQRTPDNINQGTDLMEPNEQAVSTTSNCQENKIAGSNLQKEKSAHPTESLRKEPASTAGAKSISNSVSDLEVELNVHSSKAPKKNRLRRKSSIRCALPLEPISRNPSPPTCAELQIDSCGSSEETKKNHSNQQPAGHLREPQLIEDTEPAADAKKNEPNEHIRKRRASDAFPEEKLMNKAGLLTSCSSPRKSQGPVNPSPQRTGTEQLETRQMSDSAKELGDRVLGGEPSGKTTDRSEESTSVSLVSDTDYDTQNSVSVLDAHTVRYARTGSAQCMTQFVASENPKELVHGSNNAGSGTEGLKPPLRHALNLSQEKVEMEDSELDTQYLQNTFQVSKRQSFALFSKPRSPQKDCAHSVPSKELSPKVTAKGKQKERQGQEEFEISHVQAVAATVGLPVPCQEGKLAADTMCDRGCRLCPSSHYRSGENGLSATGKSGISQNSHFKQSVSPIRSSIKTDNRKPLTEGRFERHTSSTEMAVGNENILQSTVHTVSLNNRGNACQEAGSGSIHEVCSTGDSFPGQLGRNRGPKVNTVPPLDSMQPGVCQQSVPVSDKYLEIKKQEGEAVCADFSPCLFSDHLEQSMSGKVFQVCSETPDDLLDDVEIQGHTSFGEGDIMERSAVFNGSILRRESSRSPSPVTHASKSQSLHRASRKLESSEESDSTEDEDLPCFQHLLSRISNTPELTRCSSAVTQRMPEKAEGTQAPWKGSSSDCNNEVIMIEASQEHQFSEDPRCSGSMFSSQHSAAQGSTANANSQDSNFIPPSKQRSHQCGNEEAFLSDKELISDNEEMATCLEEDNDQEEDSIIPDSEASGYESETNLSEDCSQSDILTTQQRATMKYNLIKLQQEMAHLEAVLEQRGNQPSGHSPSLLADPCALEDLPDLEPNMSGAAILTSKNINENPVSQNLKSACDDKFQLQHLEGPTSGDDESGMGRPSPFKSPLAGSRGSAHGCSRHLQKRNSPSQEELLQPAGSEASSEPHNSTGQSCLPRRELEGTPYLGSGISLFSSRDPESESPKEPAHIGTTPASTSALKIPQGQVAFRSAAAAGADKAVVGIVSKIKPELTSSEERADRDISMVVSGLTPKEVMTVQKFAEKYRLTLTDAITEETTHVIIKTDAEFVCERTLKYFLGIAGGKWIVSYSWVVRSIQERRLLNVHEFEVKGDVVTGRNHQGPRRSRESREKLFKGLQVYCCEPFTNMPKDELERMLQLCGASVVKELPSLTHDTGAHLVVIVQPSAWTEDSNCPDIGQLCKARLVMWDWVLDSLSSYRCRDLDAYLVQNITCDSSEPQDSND

[2] = target: T2, centrosomal protein 112 (Cep112) (mouse (endogenous in NIH/3T3)) (UniProt Q5PR68); test: co-IP; endogenous proteins in NIH/3T3-EV lysate (IP lysis buffer, Pierce); antibodies cross-linked to protein-A Dynabeads, incubated with lysate at 4 °C for 2 hours; IP with Brca1 antibody and blot for Cep112, and vice versa; anti-IgG IP as control; also NIHGinir-shGinir knock-down cells (interaction restored)
T2 sequence: T1 sequence

[3] = target: breast cancer type 1 susceptibility protein (Brca1) (mouse (endogenous in NIH/3T3)) (UniProt P48754); test: co-IP; lysate of NIH/3T3-Ginir(A) cells (stable overexpression of Ginir RNA); IP with Brca1 antibody, blot for Cep112; anti-IgG IP as control
[4] = target: breast cancer type 1 susceptibility protein (Brca1) (mouse (endogenous in NIH/3T3)) (UniProt P48754); test: co-IP; lysates of NIH/3T3-Ginir cells (clones A, B, C) treated with RNase A, RNase III and RNase H at 37 °C for 1 hour before IP with Brca1 antibody; blot for Cep112
[5] = target: breast cancer type 1 susceptibility protein (Brca1) (mouse (endogenous in NIH/3T3)) (UniProt P48754); test: co-IP; endogenous proteins in NIH/3T3-EV lysate (IP lysis buffer, Pierce); antibodies cross-linked to protein-A Dynabeads, incubated with lysate at 4 °C for 2 hours; IP with Brca1 antibody and blot for Cep112, and vice versa; anti-IgG IP as control; also NIHGinir-shGinir knock-down cells (interaction restored)
[6] = target: breast cancer type 1 susceptibility protein (Brca1) (mouse (endogenous in NIH/3T3)) (UniProt P48754); test: co-IP; lysates of NIH/3T3-Ginir cells (clones A, B, C) treated with RNasin (200 U/ml) before IP with Brca1 antibody; blot for Cep112
[7] = target: breast cancer type 1 susceptibility protein (Brca1) (mouse (endogenous in NIH/3T3)) (UniProt P48754); test: co-IP; lysate of NIH/3T3 cells stably expressing Flag-Cep112; IP with Flag antibody and blot for Brca1, and IP with Brca1 antibody and blot with Flag antibody; anti-IgG IP as control

Which results are given for “breast cancer type 1 susceptibility protein (Brca1) (from UniProt P48754 1-1812)”?
binding [1]: binds; binding [2]: binds

B1: centrosomal protein 112 (Cep112) (protein, UniProt Q5PR68 1-954)
chain: T1 sequence
Which results are given for B1?
binding [3]: binds weakly; binding [4]: binds; binding [5]: binds; binding [6]: binds weakly

B2: Flag-Cep112 (protein, UniProt Q5PR68 1-954)
chain: T1 sequence
B2 was tested. Which binding [7] did it give?
Its binding is “binds”.
